Measured values from publication PMC10484734, “TLK1-mediated RAD54 phosphorylation spatio-temporally regulates Homologous Recombination Repair” (Nucleic Acids Research, 2023).

Protein sequences, listed by entry. Tags and fused reporters are not part of them. Lines headed by an entry give the natural chain unless they say otherwise; changes in a name come on top.
UniProt Q9UKI8: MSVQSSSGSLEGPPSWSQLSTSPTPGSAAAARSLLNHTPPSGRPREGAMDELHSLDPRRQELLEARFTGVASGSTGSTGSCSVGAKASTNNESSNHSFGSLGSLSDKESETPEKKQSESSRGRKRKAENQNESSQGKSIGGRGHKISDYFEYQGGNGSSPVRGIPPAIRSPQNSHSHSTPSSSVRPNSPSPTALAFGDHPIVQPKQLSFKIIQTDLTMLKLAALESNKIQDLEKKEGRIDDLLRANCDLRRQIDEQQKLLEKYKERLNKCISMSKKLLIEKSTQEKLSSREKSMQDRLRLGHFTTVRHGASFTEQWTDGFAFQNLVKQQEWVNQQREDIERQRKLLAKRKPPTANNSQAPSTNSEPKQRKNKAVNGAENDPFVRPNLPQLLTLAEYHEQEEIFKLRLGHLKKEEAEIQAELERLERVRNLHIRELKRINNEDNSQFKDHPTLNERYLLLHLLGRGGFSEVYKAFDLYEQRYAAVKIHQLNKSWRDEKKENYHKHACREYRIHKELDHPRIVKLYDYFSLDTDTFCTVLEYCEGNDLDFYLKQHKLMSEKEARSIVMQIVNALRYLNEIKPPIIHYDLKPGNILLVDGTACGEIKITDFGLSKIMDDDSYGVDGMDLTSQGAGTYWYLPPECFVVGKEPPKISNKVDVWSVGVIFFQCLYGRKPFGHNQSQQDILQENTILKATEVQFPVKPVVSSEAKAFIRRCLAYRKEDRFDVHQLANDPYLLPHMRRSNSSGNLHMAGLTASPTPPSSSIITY

Columns and labels:
[1] = target: Recombinant 6X-His-human TLK1 kinase domain (TLK1B) (human) (UniProt Q9UKI8); experiment: co-IP; recombinant proteins; Protein A/G PLUS agarose coated with anti-TLK1 or IgG isotype antibody; 0.5 μg of TLK1B and of RAD54 or RAD51 in 200 μl PBS + 0.1% Tween20, BSA added, 2 h at 4°C; western blot of supernatant and eluate; both purified
[2] = target: Recombinant 6X-His-human TLK1 kinase domain (TLK1B) (human) (UniProt Q9UKI8); experiment: pull-down; HIS-TLK1B on Ni-NTA beads incubated with HeLa cell lysate; RAD54 probed by immunoblotting; only the target purified

Binder	binding [1]	binding [2]
His6-Thioredoxin-RAD54-Flag (recombinant human RAD54, wild type) (enzyme, UniProt Q92698 1-747) MRRSLAPSQLAKRKPEGRSCDDEDWQPGLVTPRKRKSSSETQIQECFLSPFRKPLSQLTNQPPCLDSSQHEAFIRSILSKPFKVPIPNYQGPLGSRALGLKRAGVRRALHDPLEKDALVLYEPPPLSAHDQLKLDKEKLPVHVVVDPILSKVLRPHQREGVKFLWECVTSRRIPGSHGCIMADEMGLGKTLQCITLMWTLLRQSPECKPEIDKAVVVSPSSLVKNWYNEVGKWLGGRIQPLAIDGGSKDEIDQKLEGFMNQRGARVSSPILIISYETFRLHVGVLQKGSVGLVICDEGHRLKNSENQTYQALDSLNTSRRVLISGTPIQNDLLEYFSLVHFVNSGILGTAHEFKKHFELPILKGRDAAASEADRQLGEERLRELTSIVNRCLIRRTSDILSKYLPVKIEQVVCCRLTPLQTELYKRFLRQAKPAEELLEGKMSVSSLSSITSLKKLCNHPALIYDKCVEEEDGFVGALDLFPPGYSSKALEPQLSGKMLVLDYILAVTRSRSSDKVVLVSNYTQTLDLFEKLCRARRYLYVRLDGTMSIKKRAKVVERFNSPSSPDFVFMLSSKAGGCGLNLIGANRLVMFDPDWNPANDEQAMARVWRDGQKKTCYIYRLLSAGTIEEKIFQRQSHKKALSSCVVDEEQDVERHFSLGELKELFILDEASLSDTHDRLHCRRCVNSRQIRPPPDGSDCTSDLAGWNHCTDKWGLRDEVLQAAWDAASTAITFVFHQRSHEEQRGLR	binds	–
endogenous RAD54 of HeLa cells (enzyme, UniProt Q92698 1-747) MRRSLAPSQLAKRKPEGRSCDDEDWQPGLVTPRKRKSSSETQIQECFLSPFRKPLSQLTNQPPCLDSSQHEAFIRSILSKPFKVPIPNYQGPLGSRALGLKRAGVRRALHDPLEKDALVLYEPPPLSAHDQLKLDKEKLPVHVVVDPILSKVLRPHQREGVKFLWECVTSRRIPGSHGCIMADEMGLGKTLQCITLMWTLLRQSPECKPEIDKAVVVSPSSLVKNWYNEVGKWLGGRIQPLAIDGGSKDEIDQKLEGFMNQRGARVSSPILIISYETFRLHVGVLQKGSVGLVICDEGHRLKNSENQTYQALDSLNTSRRVLISGTPIQNDLLEYFSLVHFVNSGILGTAHEFKKHFELPILKGRDAAASEADRQLGEERLRELTSIVNRCLIRRTSDILSKYLPVKIEQVVCCRLTPLQTELYKRFLRQAKPAEELLEGKMSVSSLSSITSLKKLCNHPALIYDKCVEEEDGFVGALDLFPPGYSSKALEPQLSGKMLVLDYILAVTRSRSSDKVVLVSNYTQTLDLFEKLCRARRYLYVRLDGTMSIKKRAKVVERFNSPSSPDFVFMLSSKAGGCGLNLIGANRLVMFDPDWNPANDEQAMARVWRDGQKKTCYIYRLLSAGTIEEKIFQRQSHKKALSSCVVDEEQDVERHFSLGELKELFILDEASLSDTHDRLHCRRCVNSRQIRPPPDGSDCTSDLAGWNHCTDKWGLRDEVLQAAWDAASTAITFVFHQRSHEEQRGLR	–	binds
recombinant human RAD51 (natural protein, UniProt Q06609 1-339, looked up, human RAD51 recombinase; also called rc-RAD51) MAMQMQLEANADTSVEEESFGPQPISRLEQCGINANDVKKLEEAGFHTVEAVAYAPKKELINIKGISEAKADKILAEAAKLVPMGFTTATEFHQRRSEIIQITTGSKELDKLLQGGIETGSITEMFGEFRTGKTQICHTLAVTCQLPIDRGGGEGKAMYIDTEGTFRPERLLAVAERYGLSGSDVLDNVAYARAFNTDHQTQLLYQASAMMVESRYALLIVDSATALYRTDYSGRGELSARQMHLARFLRMLLRLADEFGVAVVITNQVVAQVDGAAMFAADPKKPIGGNIIAHASTTRLYLRKGRGETRICKIYDSPCLPEAEAMFAINADGVGDAKD	no binding (tested: 0.5 μg of each protein in 200 μl)	–

These are yes or no findings as the source states them, for the method shown. Binding seen in cells or lysates may run through a third protein. Binding calls can cover weak binding; strength is not graded here. For part of these data: Where a sequence is shown, tags or fusion partners need not be part of it.
